Among the data in PubChem BioAssay AID246 (DTP/NCI, 2004) are T/C values, retold here.

The list shows only some results of the screen, not a fair sample: its compounds were picked by chemical class. Other doses and runs of a compound may be missing. T/C: endpoint of the treated group in % of that of the vehicle group. For survival time, this PubChem deposit counts one and a half times the control or more as active, and values a quarter to a half above the control carry no call in these data; other NCI protocols may use other cut-offs. Some entries show no survivor count and are marked so; the dose need not have been tolerated. Schedule codes are those of the source, read here as Q, the interval in days (D) or hours (H), X, the number of doses. Some entries hold several experiments; the values are given in rising order. Some schedules carry Z or #; the key to these is not given.

The test system of this assay is BDF1 mice, P1081 chloroleukemia ip, survival T/C. Put plainly: NCI In Vivo Anticancer Drug Screen. Data for tumor model P1081 Chloroleukemia (intraperitoneal) in B6D2F1 (BDF1) mice. As to conditions: T/C endpoint: mean survival time, higher T/C = longer survival. How it is done: The antitumor activity of compounds was measured in mice bearing transplantable tumors. Survival or tumor size were measured and the results are expressed as the measurement made in the treated group (T) divided by the measurement made in the vehicle treated control group (C). The tumor model used in this assay is P1081 Chloroleukemia (intraperitoneal) in B6D2F1 (BDF1) mice

[1] abbreviates: dose: 0.5 mg/kg/injection, schedule: Q01DX010 (ip), vehicle: saline.
Setting [2] is: dose: 1.0 mg/kg/injection, schedule: Q01DX010 (ip), vehicle: saline.
Setting [3] is: dose: 2.0 mg/kg/injection, schedule: Q01DX010 (ip), vehicle: saline.
Where [4] appears, read: dose: 0.63 mg/kg/injection, schedule: Q01DX010 (ip), vehicle: saline.
The mark [5] stands for this setting: dose: 1.25 mg/kg/injection, schedule: Q01DX010 (ip), vehicle: saline.
The mark [6] stands for this setting: dose: 5.0 mg/kg/injection, schedule: Q01DX Z (ip), vehicle: carboxymethylcellulose (CMC).
[7] abbreviates: dose: 10.0 mg/kg/injection, schedule: Q01DX Z (ip), vehicle: carboxymethylcellulose (CMC).
[8] abbreviates: dose: 2.5 mg/kg/injection, schedule: Q01DX010 (ip), vehicle: saline.
Setting [9] is: dose: 5.0 mg/kg/injection, schedule: Q01DX010 (ip), vehicle: saline.

Consider `CC(C(=O)O)N(CCCl)CCCl` (centres undefined), for which the T/C runs as follows: under setting [1], 110 % of control [survivor count not shown]; under setting [2], 109 [survivor count not shown] and 175 % of control [survivor count not shown]; under setting [3], 127 [survivor count not shown] and 210 % of control [survivor count not shown]; (dose: 4.0 mg/kg/injection, schedule: Q01DX010 (ip), vehicle: saline) 210 [survivor count not shown] and 300 % of control [survivor count not shown].
Turning to `ClCCNCCCl`, the T/C (dose: 9.4 mg/kg/injection, schedule: Q01DX010 (ip), vehicle: saline) was 100 % of control [survivor count not shown]; the T/C (dose: 12.5 mg/kg/injection, schedule: Q01DX Z (ip), vehicle: carboxymethylcellulose (CMC)) is 86 % of control [survivor count not shown]; the T/C (dose: 18.8 mg/kg/injection, schedule: Q01DX010 (ip), vehicle: saline) was 120 [survivor count not shown] and 131 % of control [survivor count not shown]; the T/C (dose: 25.0 mg/kg/injection, schedule: Q01DX Z (ip), vehicle: carboxymethylcellulose (CMC)) was 93 [survivor count not shown] and 98 % of control [survivor count not shown]; the T/C (dose: 37.5 mg/kg/injection, schedule: Q01DX010 (ip), vehicle: saline) was 118 [survivor count not shown] and 160 % of control [survivor count not shown]; the T/C (dose: 50.0 mg/kg/injection, schedule: Q01DX Z (ip), vehicle: carboxymethylcellulose (CMC)) is 86 % of control [survivor count not shown].
In the case of `NC(Cc1cccc(N(CCCl)CCCl)c1)C(=O)O` (centres undefined), the T/C runs as follows: (dose: 0.02 mg/kg/injection, schedule: Q01DX Z (ip), vehicle: carboxymethylcellulose (CMC)) 104 % of control [survivor count not shown]; (dose: 0.04 mg/kg/injection, schedule: Q01DX Z (ip), vehicle: carboxymethylcellulose (CMC)) 106 % of control [survivor count not shown]; (dose: 0.08 mg/kg/injection, schedule: Q01DX Z (ip), vehicle: carboxymethylcellulose (CMC)) 103 [survivor count not shown] and 145 % of control [survivor count not shown]; (dose: 0.16 mg/kg/injection, schedule: Q01DX Z (ip), vehicle: carboxymethylcellulose (CMC)) 111 [survivor count not shown] and 159 % of control [survivor count not shown]; (dose: 0.31 mg/kg/injection, schedule: Q01DX010 (ip), vehicle: saline) 118 % of control [survivor count not shown]; (dose: 0.32 mg/kg/injection, schedule: Q01DX Z (ip), vehicle: carboxymethylcellulose (CMC)) 178 % of control [survivor count not shown]. Also, the T/C reads like this: under setting [4], 120 [survivor count not shown] and 231 % of control [survivor count not shown]; (dose: 0.63 mg/kg/injection, schedule: Q01DX Z (ip), vehicle: carboxymethylcellulose (CMC)) 149 % of control [survivor count not shown]; under setting [5], 105 [survivor count not shown] and 145 % of control [survivor count not shown]; (dose: 1.25 mg/kg/injection, schedule: Q01DX Z (ip), vehicle: carboxymethylcellulose (CMC)) 184 % of control [survivor count not shown]; (dose: 2.5 mg/kg/injection, schedule: Q01DX Z (ip), vehicle: carboxymethylcellulose (CMC)) 240 % of control [survivor count not shown]; under setting [6], 89 % of control [survivor count not shown]. Besides, the T/C under setting [7] is 124 % of control [survivor count not shown].
In the case of `NC1CCCCC1.NP(=O)(O)N(CCCl)CCCl`, the T/C reads like this: (dose: 15.6 mg/kg/injection, schedule: Q01DX010 (ip), vehicle: saline) 300 % of control [survivor count not shown]; (dose: 31.3 mg/kg/injection, schedule: Q01DX010 (ip), vehicle: saline) 195 % of control [survivor count not shown]; (dose: 62.5 mg/kg/injection, schedule: Q01DX010 (ip), vehicle: saline) 115 % of control [survivor count not shown].
Take `NC(Cc1ccccc1N(CCCl)CCCl)C(=O)O` (centres undefined): the T/C was 260 % of control [survivor count not shown] (dose: 0.25 mg/kg/injection, schedule: Q01DX010 (ip), vehicle: saline); 93 % of control [survivor count not shown] (dose: 0.25 mg/kg/injection, schedule: Q01DX Z (ip), vehicle: carboxymethylcellulose (CMC)); 300 % of control [survivor count not shown] under setting [1]; 106 % of control [survivor count not shown] (dose: 0.5 mg/kg/injection, schedule: Q01DX Z (ip), vehicle: carboxymethylcellulose (CMC)); 300 % of control [survivor count not shown] under setting [2]; 135 % of control [survivor count not shown] under setting [3]. For the same compound, for the setting “dose: 2.0 mg/kg/injection, schedule: Q01DX Z (ip), vehicle: carboxymethylcellulose (CMC)”, the T/C was 91 % of control [survivor count not shown].
For `O=C(O)CN(CCCl)CCCl`, the T/C by setting is: (dose: 0.25 mg/kg/injection, schedule: Q01DX Z (ip), vehicle: saline) 114 % of control [survivor count not shown]; (dose: 0.5 mg/kg/injection, schedule: Q01DX Z (ip), vehicle: saline) 104 [survivor count not shown] and 141 % of control [survivor count not shown]; under setting [4], 95 [survivor count not shown] and 120 % of control [survivor count not shown]; (dose: 1.0 mg/kg/injection, schedule: Q01DX Z (ip), vehicle: saline) 131 [survivor count not shown] and 148 % of control [survivor count not shown]; under setting [5], 118 [survivor count not shown] and 145 % of control [survivor count not shown]; (dose: 2.0 mg/kg/injection, schedule: Q01DX Z (ip), vehicle: saline) 155 % of control [survivor count not shown]. Also, the T/C is 209 [survivor count not shown] and 300 % of control [survivor count not shown] under setting [8]; 131 % of control [survivor count not shown] (dose: 4.0 mg/kg/injection, schedule: Q01DX Z (ip), vehicle: saline); 118 % of control [survivor count not shown] under setting [9].
Regarding `ClCCN(CCCl)Cc1nc2ccccc2[nH]1`, the T/C is, setting by setting: under setting [5], 110 [survivor count not shown] and 115 % of control [survivor count not shown]; under setting [8], 125 [survivor count not shown] and 155 % of control [survivor count not shown]; under setting [9], 140 [survivor count not shown] and 160 % of control [survivor count not shown]; under setting [6], 112 % of control [survivor count not shown]; (dose: 10.0 mg/kg/injection, schedule: Q01DX010 (ip), vehicle: saline) 90 [survivor count not shown] and 130 % of control [survivor count not shown]; under setting [7], 160 % of control [survivor count not shown]. Further, the T/C (dose: 20.0 mg/kg/injection, schedule: Q01DX Z (ip), vehicle: carboxymethylcellulose (CMC)) was 177 % of control [survivor count not shown].
